{"source": "PubChem BioAssay AID1347075", "about": "(National Center for Advancing Translational Sciences (NCATS), 2019)", "note": "Out of some 400,000 compounds screened, about 5,500 (1.4%) were called active. The inconclusive results got no clear call from the source; some entries with a clear call stand among them for comparison. Calls come from the whole dose curve; as a rule, active = well fitted cell-killing curve with a large enough effect; inconclusive = small, poorly fitted or top-dose-only effect, or effect the other way; inactive = flat fitted curve, though single readings scatter. A potency beside an inconclusive call is a rough fit, not a confirmed value. % is set by controls: 0 for no effect and ±100 for the full control effect; potency is the fitted concentration of half-maximal effect.", "data": [{"experiment": "qHTS assay for MDR1-selective chemotherapeutics: Primary screen using the parental adenocarcinoma cell KB-3-1; note: nearly all actives have a fitted effect of over 60% in size", "conditions": "KB-3-1 viability, CellTiter-Glo ATP luminescence, 72 h; activity change, negative = cytotoxic: at 46.1 µM (top of the series)", "summary_of_the_method": "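KB-3-1 cells, DMEM (no phenol red) + 10% FBS; compound by pin transfer, 72 h, 37 °C. Readout: CellTiter-Glo luminescence after 10 min. Data normalized, curve-fitted.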", "values": [{"smiles": "COc1cc(NC(=O)Nc2nc(C(N)C3CCCCC3)cs2)cc(OC)c1OC", "note": "(stereo unspecified)", "Potency": "inconclusive: 29.1 µM [cytotoxic, single point]"}, {"smiles": "COc1ccc(-c2nn(-c3ccccc3)cc2/C=N/Nc2ccc3ccccc3n2)cc1OC", "Potency": "inactive"}, {"smiles": "CCOC(=O)Cc1csc(NC(=O)c2ccc(C)c(S(=O)(=O)N3CCOCC3)c2)n1", "Potency": "inactive"}, {"smiles": "O=C1C(=O)N(CCS(=O)(=O)c2ccccc2)c2ccc(F)cc21", "Potency": "inconclusive: 16.4 µM [cytotoxic, partial curve, poor fit]"}, {"smiles": "COc1ccc(C(CNC(=O)c2oc3ccc(Cl)cc3c2C)N2CCCCC2)cc1", "note": "(stereo unspecified)", "Potency": "inactive"}, {"smiles": "Cc1ccc(Sc2ncccc2/C=N/O)cc1", "Potency": "inconclusive: 29.1 µM [rising, single point]"}, {"smiles": "CCc1ccc(OCc2ccc(C(=O)O)o2)cc1", "Potency": "inactive"}, {"smiles": "CCCc1nc(SCC(=O)NCc2ccco2)c2c(=O)n(C)c(=O)n(C)c2n1", "Potency": "inconclusive: 16.4 µM [cytotoxic, partial curve, poor fit]"}, {"smiles": "Clc1cccc(-c2ccc(/C=N/n3cnnc3)o2)c1Cl", "Potency": "active: 6.51 µM"}, {"smiles": "Nc1nnc2c(n1)[nH]c1ccccc12", "Potency": "inactive"}, {"smiles": "O=C(COc1ccccc1Cl)Nc1ccc2[nH]c(=O)[nH]c2c1", "Potency": "active: 1.46 µM"}, {"smiles": "CCCCNc1nc2c(c(=O)n(Cc3ccc(Cl)cc3)c(=O)n2C)n1C", "activity change, negative = cytotoxic": "inconclusive: -35% [cytotoxic]"}, {"smiles": "CCc1nnc(N/N=C/c2c(C)[nH]c3ccccc23)n1N", "Potency": "inactive"}, {"smiles": "O=C(NC1CCCCCCC1)c1cc(COc2ccc3ncccc3c2)on1", "Potency": "active: 2.59 µM"}, {"smiles": "CN(C)c1ccc(C(CNS(=O)(=O)c2ccc(F)cc2)c2c[nH]c3ccccc23)cc1", "note": "(stereo unspecified)", "Potency": "inconclusive: 23.1 µM [cytotoxic, single point]"}, {"smiles": "Cc1ccc(-n2nc3c(=O)n(C(C)C(=O)NCCC4=CCCCC4)nc(C)c3c2C)cc1", "note": "(stereo unspecified)", "Potency": "inconclusive: 4.61 µM [cytotoxic, full curve]"}, {"smiles": "O=C(N/N=C/C(Br)=C/c1ccccc1)c1ccccc1F", "Potency": "inconclusive: 20.6 µM [cytotoxic, single point]"}, {"smiles": "CC1=NN(/C(=N\\c2nnc(C)s2)Nc2ccc(C(C)(C)C)cc2)[C@H](c2ccc(C)cc2)S1", "Potency": "inconclusive: 29.1 µM [cytotoxic, single point]"}, {"smiles": "CCc1nc(-c2cc3ccc(C)cc3[nH]c2=O)no1", "Potency": "inactive"}, {"smiles": "Cc1ccc(S(=O)(=O)c2nnn3c2nc(Nc2cccc(C)c2)c2ccccc23)cc1", "Potency": "inconclusive: 14.6 µM [cytotoxic, partial curve, poor fit]"}, {"smiles": "CCOC(=O)C1CCCN(C(=O)c2ccc3nc(-c4ccccc4)c(-c4ccccc4)nc3c2)C1", "note": "(stereo unspecified)", "Potency": "inactive"}]}]}
